Source: the supplement of paper PMC10849652
The list shows a part of the results.

Chains of the proteins cited; added tags and fusions are not shown. Lines headed by an entry give the natural chain unless they say otherwise; changes in a name come on top.
UniProt Q9BZK7: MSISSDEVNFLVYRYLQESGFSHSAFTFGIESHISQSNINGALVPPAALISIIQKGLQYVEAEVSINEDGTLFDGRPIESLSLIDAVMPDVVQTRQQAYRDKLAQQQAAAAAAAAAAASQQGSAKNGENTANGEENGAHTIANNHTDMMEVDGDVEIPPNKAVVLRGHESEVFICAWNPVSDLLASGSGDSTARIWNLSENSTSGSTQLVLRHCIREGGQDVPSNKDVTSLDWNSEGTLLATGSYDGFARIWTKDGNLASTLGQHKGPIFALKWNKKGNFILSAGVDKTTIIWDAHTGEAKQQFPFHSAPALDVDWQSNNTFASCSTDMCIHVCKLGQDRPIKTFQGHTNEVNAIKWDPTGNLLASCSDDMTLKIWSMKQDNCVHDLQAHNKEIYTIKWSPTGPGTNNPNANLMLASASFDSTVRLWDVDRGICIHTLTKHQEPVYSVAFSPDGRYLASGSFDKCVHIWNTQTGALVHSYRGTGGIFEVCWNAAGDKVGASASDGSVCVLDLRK
UniProt Q9Y5L4: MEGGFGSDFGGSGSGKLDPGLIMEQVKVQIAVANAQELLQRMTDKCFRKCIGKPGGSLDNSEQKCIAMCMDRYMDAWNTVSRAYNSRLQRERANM
UniProt O95551: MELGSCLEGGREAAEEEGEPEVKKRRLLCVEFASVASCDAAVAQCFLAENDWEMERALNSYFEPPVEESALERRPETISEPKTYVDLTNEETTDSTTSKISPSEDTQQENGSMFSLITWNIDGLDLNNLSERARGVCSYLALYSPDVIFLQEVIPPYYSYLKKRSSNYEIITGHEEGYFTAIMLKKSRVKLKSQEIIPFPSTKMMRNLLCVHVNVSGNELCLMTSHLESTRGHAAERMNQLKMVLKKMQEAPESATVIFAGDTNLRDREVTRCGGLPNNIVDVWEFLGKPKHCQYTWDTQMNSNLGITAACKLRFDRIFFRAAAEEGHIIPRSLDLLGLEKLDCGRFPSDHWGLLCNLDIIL
UniProt O60830: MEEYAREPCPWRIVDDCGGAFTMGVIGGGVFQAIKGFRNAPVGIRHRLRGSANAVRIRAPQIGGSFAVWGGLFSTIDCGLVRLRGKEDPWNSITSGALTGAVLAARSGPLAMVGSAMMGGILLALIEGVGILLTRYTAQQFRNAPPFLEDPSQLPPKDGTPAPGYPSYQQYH
UniProt Q96RS0: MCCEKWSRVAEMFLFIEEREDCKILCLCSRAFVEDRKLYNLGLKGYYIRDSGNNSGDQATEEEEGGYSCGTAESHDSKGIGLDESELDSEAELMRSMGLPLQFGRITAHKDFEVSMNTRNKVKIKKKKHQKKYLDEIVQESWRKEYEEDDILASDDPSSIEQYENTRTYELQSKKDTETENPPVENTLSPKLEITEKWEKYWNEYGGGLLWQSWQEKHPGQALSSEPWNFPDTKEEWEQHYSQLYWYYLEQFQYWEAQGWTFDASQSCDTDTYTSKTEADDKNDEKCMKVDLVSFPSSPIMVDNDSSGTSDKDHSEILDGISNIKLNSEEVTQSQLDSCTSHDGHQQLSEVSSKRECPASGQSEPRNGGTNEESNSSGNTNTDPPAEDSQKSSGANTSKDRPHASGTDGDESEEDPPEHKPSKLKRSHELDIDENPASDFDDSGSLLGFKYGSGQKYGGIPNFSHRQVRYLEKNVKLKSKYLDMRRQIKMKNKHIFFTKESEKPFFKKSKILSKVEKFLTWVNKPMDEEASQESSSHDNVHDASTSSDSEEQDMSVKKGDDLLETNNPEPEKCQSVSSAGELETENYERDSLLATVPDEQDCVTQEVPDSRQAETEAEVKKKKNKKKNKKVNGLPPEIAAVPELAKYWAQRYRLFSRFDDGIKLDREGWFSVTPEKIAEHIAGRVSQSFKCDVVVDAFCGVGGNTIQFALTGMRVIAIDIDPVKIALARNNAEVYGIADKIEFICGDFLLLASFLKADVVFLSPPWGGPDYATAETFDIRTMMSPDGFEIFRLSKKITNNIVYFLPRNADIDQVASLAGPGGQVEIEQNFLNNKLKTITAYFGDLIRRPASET
UniProt P01137, whole entry, looked up: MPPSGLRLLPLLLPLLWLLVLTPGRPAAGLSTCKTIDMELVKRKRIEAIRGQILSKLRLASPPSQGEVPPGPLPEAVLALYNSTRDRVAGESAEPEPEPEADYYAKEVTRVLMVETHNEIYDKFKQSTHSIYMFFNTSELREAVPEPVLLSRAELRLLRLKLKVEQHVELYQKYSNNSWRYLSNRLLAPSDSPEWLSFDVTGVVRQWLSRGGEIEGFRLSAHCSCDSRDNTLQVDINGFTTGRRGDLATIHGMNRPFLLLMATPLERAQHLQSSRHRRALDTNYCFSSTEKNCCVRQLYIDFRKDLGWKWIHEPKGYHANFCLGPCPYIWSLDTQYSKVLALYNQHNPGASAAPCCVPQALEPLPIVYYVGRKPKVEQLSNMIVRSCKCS
UniProt Q8WUA7: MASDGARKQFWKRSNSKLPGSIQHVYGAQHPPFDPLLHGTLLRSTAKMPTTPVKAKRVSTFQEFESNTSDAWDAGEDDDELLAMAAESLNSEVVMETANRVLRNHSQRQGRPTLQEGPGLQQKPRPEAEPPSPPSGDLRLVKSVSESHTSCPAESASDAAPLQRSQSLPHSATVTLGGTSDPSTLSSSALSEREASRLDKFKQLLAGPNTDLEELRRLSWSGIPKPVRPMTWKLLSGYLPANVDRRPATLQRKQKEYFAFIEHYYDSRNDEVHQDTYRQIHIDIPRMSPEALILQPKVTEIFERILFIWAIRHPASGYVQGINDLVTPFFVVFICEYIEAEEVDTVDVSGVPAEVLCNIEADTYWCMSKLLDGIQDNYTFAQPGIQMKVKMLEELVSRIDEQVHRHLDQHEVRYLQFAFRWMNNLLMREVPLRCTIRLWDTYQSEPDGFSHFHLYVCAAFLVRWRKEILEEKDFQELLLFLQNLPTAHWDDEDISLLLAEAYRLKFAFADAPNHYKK
UniProt Q13428: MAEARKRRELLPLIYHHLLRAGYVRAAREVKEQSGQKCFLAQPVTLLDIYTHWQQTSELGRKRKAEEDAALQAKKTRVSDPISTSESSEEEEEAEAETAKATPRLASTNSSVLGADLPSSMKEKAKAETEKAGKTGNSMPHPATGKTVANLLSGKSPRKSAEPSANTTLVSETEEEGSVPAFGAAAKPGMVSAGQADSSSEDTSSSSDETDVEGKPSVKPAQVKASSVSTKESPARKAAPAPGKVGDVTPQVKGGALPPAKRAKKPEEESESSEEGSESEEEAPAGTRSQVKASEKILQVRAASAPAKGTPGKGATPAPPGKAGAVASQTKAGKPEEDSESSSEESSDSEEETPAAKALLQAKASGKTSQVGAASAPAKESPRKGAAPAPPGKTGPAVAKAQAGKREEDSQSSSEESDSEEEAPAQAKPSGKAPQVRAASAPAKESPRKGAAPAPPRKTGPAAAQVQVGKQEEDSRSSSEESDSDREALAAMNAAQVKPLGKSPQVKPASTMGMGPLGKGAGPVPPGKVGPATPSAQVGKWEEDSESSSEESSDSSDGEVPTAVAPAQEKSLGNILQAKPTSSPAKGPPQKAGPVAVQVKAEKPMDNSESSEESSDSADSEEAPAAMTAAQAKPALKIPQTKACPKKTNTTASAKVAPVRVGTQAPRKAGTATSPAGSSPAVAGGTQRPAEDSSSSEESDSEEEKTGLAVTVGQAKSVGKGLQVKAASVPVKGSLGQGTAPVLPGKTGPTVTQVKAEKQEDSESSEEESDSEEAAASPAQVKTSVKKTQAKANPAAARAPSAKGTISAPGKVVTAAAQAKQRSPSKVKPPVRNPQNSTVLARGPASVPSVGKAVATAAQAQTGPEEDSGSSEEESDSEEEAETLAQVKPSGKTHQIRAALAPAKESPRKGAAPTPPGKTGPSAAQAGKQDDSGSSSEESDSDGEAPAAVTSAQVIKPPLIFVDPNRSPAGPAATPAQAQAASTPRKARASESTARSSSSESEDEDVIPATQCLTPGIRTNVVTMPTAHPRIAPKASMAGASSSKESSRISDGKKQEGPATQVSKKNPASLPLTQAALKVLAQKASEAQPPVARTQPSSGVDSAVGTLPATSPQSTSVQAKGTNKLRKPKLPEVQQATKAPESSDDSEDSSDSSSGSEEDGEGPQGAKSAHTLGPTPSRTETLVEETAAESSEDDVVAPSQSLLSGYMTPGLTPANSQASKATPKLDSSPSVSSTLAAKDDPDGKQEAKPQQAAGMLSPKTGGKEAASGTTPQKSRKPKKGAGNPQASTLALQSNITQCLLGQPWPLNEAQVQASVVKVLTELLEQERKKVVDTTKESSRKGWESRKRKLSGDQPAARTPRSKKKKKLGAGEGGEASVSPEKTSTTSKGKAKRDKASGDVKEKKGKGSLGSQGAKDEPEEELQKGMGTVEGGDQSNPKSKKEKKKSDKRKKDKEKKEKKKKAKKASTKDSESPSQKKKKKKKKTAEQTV
UniProt O75347: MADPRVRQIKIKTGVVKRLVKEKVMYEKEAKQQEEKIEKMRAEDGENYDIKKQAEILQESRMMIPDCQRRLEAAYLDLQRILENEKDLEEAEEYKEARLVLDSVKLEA
UniProt P31483: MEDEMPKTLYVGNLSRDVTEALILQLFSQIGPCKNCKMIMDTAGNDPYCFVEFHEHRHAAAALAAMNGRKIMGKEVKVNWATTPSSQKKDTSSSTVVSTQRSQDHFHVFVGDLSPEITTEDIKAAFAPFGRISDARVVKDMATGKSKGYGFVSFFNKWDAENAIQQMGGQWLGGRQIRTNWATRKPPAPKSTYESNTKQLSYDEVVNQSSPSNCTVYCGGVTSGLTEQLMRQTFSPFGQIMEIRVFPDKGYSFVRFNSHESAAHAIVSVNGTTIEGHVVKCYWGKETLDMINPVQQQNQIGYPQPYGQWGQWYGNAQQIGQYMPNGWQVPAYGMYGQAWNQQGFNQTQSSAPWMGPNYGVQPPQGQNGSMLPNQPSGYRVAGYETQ
UniProt Q9Y584: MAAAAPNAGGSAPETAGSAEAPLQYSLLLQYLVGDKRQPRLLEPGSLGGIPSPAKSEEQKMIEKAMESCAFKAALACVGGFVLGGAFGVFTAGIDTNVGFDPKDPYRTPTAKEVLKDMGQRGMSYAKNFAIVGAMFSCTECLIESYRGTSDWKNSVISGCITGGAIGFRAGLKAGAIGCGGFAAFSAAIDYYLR
UniProt Q9Y2W6: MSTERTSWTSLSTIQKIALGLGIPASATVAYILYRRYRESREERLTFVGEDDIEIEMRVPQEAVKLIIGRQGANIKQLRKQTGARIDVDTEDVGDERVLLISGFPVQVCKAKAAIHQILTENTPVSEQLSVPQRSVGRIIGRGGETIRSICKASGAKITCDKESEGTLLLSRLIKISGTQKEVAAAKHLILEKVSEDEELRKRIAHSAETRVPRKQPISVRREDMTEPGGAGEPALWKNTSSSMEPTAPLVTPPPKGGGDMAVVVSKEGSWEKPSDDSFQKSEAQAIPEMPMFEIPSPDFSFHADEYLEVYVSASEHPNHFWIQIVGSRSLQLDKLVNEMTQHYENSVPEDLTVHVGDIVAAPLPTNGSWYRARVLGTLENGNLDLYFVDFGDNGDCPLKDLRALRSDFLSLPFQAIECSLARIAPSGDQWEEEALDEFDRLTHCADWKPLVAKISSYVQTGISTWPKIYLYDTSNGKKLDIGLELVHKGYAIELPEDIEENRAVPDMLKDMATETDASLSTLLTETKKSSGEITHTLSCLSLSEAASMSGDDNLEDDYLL
UniProt Q5T1C6: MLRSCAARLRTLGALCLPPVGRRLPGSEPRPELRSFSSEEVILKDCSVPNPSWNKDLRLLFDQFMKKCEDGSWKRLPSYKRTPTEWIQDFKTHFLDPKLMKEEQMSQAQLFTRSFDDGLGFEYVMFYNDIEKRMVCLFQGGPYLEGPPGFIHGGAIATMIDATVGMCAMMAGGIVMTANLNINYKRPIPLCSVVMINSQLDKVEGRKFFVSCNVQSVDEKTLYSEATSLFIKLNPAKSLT
UniProt Q9NUY8: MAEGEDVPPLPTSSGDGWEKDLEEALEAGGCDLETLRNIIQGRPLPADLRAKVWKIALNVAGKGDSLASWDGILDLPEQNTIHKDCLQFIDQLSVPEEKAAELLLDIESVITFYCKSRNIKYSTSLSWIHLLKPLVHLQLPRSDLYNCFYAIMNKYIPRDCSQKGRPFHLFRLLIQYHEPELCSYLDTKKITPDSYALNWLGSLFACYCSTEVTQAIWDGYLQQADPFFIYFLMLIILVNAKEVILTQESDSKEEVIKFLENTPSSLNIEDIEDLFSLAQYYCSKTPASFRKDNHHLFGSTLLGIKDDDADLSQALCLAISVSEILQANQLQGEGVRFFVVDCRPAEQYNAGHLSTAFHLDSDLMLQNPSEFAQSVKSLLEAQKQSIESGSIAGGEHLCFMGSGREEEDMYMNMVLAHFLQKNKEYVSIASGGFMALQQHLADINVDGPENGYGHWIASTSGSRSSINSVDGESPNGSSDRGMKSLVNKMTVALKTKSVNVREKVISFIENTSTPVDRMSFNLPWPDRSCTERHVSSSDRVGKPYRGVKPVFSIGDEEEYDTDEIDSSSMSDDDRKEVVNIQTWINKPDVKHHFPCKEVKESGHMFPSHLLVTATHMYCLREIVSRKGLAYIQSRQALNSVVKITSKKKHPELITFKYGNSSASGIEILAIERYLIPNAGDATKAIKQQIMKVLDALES

Key:
Test in all cases: log2 fold change, soluble protein after heating vs DMSO (PISA); higher = thermal stabilisation; K562 cells, 10 uM, 30 min; active = over 0.2 and 3.5 SD of the protein, either way, in both replicates (recomputed)
[1] = compound: CC1=C(C=C(C=C1)NC(=O)C2=CC(=CC=C2)C(C)(C)C#N)NC3=CC4=C(C=C3)N=CN(C4=O)C
How it was run: (§1)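 Soluble protein was defined as the supernatant after 21,000xg for 90 min. It came from K562 cells at 2×10^6 cells/mL given 10 μM compound for 30 min, heated in aliquots for 3 min across 48°C-58°C, pooled, and extracted in PBS with 0.5% NP-40 at 4°C, and was quantified by TMTpro 16plex LC-MS/MS with equalised channel sums. Thermal stability against control samples, from duplicates, is reported as log2 fold change.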

[2] = compound: CC1=C(C=C(C=C1)NC(=O)C2=CC(=CC=C2)N(C)C)NC(=O)C3=CC=C(C=C3)O
How it was run: as §1

[3] = compound: CC1=CC=C(C=C1)SC2=C3C=C(SC3=CN=C2)C(=O)N
How it was run: as §1

[4] = compound: CC1=NC(=CC=C1)C2=C(N=C(N2)C(C)(C)C)C3=CC4=NC=CN=C4C=C3
How it was run: as §1

[5] = compound: CCCCN(Cc1ccc(C(=O)NO)cc1)C(=O)Nc1ccccc1 [Nexturastat A]
How it was run: as §1

[6] = compound: CCCS(=O)(=O)Nc1ccc(F)c(C(=O)c2c[nH]c3ncc(-c4ccc(Cl)cc4)cc23)c1F [vemurafenib]
How it was run: as §1

[7] = compound: CCCS(=O)(=O)Nc1ccc(F)c(C(=O)c2c[nH]c3ncc(Cl)cc23)c1F
How it was run: as §1

[8] = compound: CCCc1cc(C)[nH]c(=O)c1CNC(=O)c1cc(-c2ccnc(N3CCN(C)CC3)c2)cc2c1cnn2C(C)C
How it was run: as §1

[9] = compound: CCN(CC)Cc1ccc2cc(COC(=O)Nc3ccc(C(=O)NO)cc3)ccc2c1 [givinostat]
How it was run: as §1

[10] = compound: CCN(CCCOc1ccc2c(Nc3cc(CC(=O)Nc4cccc(F)c4)[nH]n3)ncnc2c1)CCOP(=O)(O)O [barasertib]
How it was run: as §1

[11] = compound: CC[C@@H]1C(=O)N(C)c2cnc(Nc3ccc(C(=O)NC4CCN(C)CC4)cc3OC)nc2N1C1CCCC1
How it was run: as §1

[12] = compound: CC[C@@H]1C(=O)N(C)c2cnc(Nc3ccc(C(=O)N[C@H]4CC[C@H](N5CCN(CC6CC6)CC5)CC4)cc3OC)nc2N1C(C)C [volasertib]
How it was run: as §1

[13] = compound: CC[C@H](C)N1C=C(C2=C(C=C(C=C21)C3=CN=C(C=C3)N4CCNCC4)C(=O)NCC5=C(C=C(NC5=O)C)C)C
How it was run: as §1

[14] = compound: CC[C@H](C)[C@@H](C(=O)N[C@@H]([C@@H](C)O)C(=O)N[C@@H](CC(C)C)C(=O)[C@]1(CO1)C)NC(=O)[C@H]([C@@H](C)CC)N(C)C(=O)C [epoxomicin]
How it was run: as §1

[15] = compound: CCn1c(C(=O)N(C2CC2)C2CC2)cc2c3c(ncn3C)c(Nc3cc(C)n(C)n3)nc21
How it was run: as §1

[16] = compound: CCn1cc(-c2ccnc3[nH]c(-c4cccc(CN(C)C)c4)cc23)c(-c2ccc(NC(=O)N(C)C)cc2)n1
How it was run: as §1

[17] = compound: CN(C)CC(=O)Nc1ccc2[nH]c(=O)c3ccccc3c2c1
How it was run: as §1

[18] = compound: CN(CCOC1=CC=C(C=C1)C[C@H]2C(=O)NC(=O)S2)C3=CC=CC=N3 (racemic) [rosiglitazone]
How it was run: as §1

[19] = compound: CN1C2=C(C3=C1C(=O)N(N=C3)CC4=CC(=CC=C4)N)SC(=C2)S(=O)C
How it was run: as §1

[20] = compound: CN1CCC(CNc2ccc3ncc(-c4cccc(OC(F)(F)F)c4)n3n2)CC1
How it was run: as §1

Measured: log2 fold change

TBL1XR1 (UniProt Q9BZK7)
inactive: [1] 0.003 | [2] -0.001 | [3] 0.006 | [4] 0.016 | [5] -0.16 | [6] -0.018 | [7] 0.035 | [8] -0.002 | [9] -0.048 | [10] -0.01 | [11] 0.075 | [12] 0.01 | [13] 0.024 | [14] 0.044 | [15] 0.019 | [16] -0.066 | [17] -0.022 | [18] 0.035 | [19] -0.009 | [20] -0.014

TIMM13 (UniProt Q9Y5L4)
inactive: [1] 0.086 | [2] -0.048 | [3] 0.03 | [4] 0.143 | [5] -0.19 | [6] 0.072 | [7] 0.015 | [8] 0.085 | [9] 0.089 | [10] -0.035 | [11] 0.019 | [12] -0.048 | [13] 0.027 | [14] 0.213 | [16] 0 | [17] -0.032 | [19] -0.094 | [20] 0.237

TKT, A0A0B4J1R6
inactive: [1] 0.055 | [2] 0.05 | [3] 0.094 | [4] 0.039 | [5] -0.101 | [6] -0.085 | [7] -0.036 | [8] -0.058 | [9] -0.034 | [10] 0.039 | [11] 0.256 | [12] -0.108 | [13] -0.183 | [14] -0.308 | [15] -0.02 | [17] -0.172 | [18] -0.067 | [19] -0.017

TDP2 isoform 2 (UniProt O95551)
inactive: [1] -0.007 | [2] 0.052 | [3] -0.025 | [4] -0.007 | [5] 0.005 | [6] 0.043 | [7] 0.038 | [8] -0.04 | [9] -0.007 | [10] 0.005 | [11] -0.065 | [12] -0.026 | [13] 0.016 | [14] 0.068 | [15] 0.034 | [16] -0.074 | [17] -0.026 | [18] 0.037 | [19] -0.038 | [20] -0.1

TIMM17B (UniProt O60830)
inactive: [1] -0.018 | [2] 0.053 | [3] -0.038 | [4] -0.021 | [5] 0.023 | [6] -0.032 | [7] 0.003 | [8] -0.086 | [9] 0.017 | [10] 0.019 | [11] 0.01 | [12] 0.046 | [13] -0.029 | [14] -0.029 | [15] 0.042 | [16] -0.02 | [17] -0.129 | [18] -0.045 | [19] -0.064 | [20] 0.009

TGS1 (UniProt Q96RS0)
inactive: [1] 0.018 | [2] 0.019 | [3] -0.026 | [4] -0.17 | [5] 0.035 | [6] 0.16 | [7] -0.001 | [8] 0.255 | [9] 0.049 | [10] 0.12 | [11] 0.031 | [12] -0.261 | [13] 0.126 | [14] -0.059 | [15] -0.122 | [17] -0.081 | [18] -0.027 | [19] 0.046

TGFB1 (UniProt P01137)
inactive: [1] -0.027 | [2] 0.028 | [3] -0.004 | [4] 0.019 | [5] -0.005 | [6] -0.016 | [7] -0.003 | [8] -0.04 | [9] -0.002 | [10] -0.03 | [11] 0.058 | [12] 0.015 | [13] -0.014 | [14] -0.004 | [15] 0.024 | [16] 0.028 | [17] 0 | [18] -0.003 | [19] -0.026 | [20] 0.106

TBC1D22A (UniProt Q8WUA7)
inactive: [1] -0.041 | [2] 0.055 | [3] 0.036 | [4] -0.058 | [5] -0.067 | [6] 0.046 | [7] 0.052 | [8] -0.028 | [9] -0.005 | [10] -0.015 | [11] 0.022 | [12] -0.086 | [13] 0 | [14] -0.014 | [15] -0.005 | [16] -0.022 | [17] -0.01 | [18] 0.025 | [19] -0.093 | [20] -0.014

TBC1D24 (UniProt Q9ULP9)
inactive: [1] -0.018 | [2] -0.012 | [3] 0.005 | [4] 0.006 | [5] -0.024 | [6] 0.019 | [7] 0.046 | [8] -0.033 | [9] 0.005 | [10] -0.019 | [11] 0.025 | [12] -0.028 | [13] 0.05 | [14] -0.011 | [16] -0.175 | [17] 0.018 | [19] -0.067 | [20] -0.236

TCOF1 isoform 4 (UniProt Q13428)
inactive: [1] -0.03 | [2] 0.015 | [3] -0.028 | [4] -0.019 | [5] -0.001 | [6] -0.029 | [7] -0.012 | [8] -0.004 | [9] 0.056 | [10] 0.006 | [11] -0.018 | [12] 0.034 | [13] -0.016 | [14] -0.02 | [16] 0.063 | [17] -0.052 | [19] 0.019 | [20] -0.06

TBCA (UniProt O75347)
inactive: [1] -0.012 | [2] -0.014 | [3] 0 | [4] -0.022 | [5] -0.057 | [6] -0.044 | [7] -0.089 | [8] -0.037 | [9] -0.015 | [10] 0.039 | [11] -0.019 | [12] 0.123 | [13] -0.062 | [14] -0.022 | [15] 0.028 | [16] 0.009 | [17] -0.053 | [18] -0.001 | [19] -0.054 | [20] -0.017

TIA1 (UniProt P31483)
inactive: [1] -0.064 | [2] 0.009 | [3] 0.008 | [4] 0.046 | [5] -0.003 | [6] 0.002 | [7] 0.024 | [8] -0.09 | [9] -0.081 | [10] -0.001 | [11] 0.037 | [12] -0.005 | [13] 0.02 | [14] -0.043 | [15] -0.038 | [16] -0.053 | [17] -0.004 | [18] -0.015 | [19] 0.011 | [20] 0.09

TIMM22 (UniProt Q9Y584)
inactive: [1] 0.01 | [2] -0.009 | [3] -0.081 | [4] -0.012 | [5] -0.07 | [6] 0.165 | [7] 0.019 | [8] 0.012 | [9] 0.019 | [10] -0.015 | [11] -0.024 | [12] 0.079 | [13] -0.04 | [14] 0.12 | [15] 0.033 | [16] -0.056 | [17] 0.19 | [18] 0.046 | [19] -0.101 | [20] 0.2

TDRKH (UniProt Q9Y2W6)
inactive: [1] -0.011 | [2] -0.088 | [3] -0.036 | [4] -0.007 | [5] 0.071 | [6] 0.042 | [7] -0.026 | [8] 0.054 | [9] 0.091 | [10] 0.044 | [11] 0.03 | [12] -0.062 | [13] 0.103 | [14] -0.043 | [15] -0.039 | [16] 0.007 | [17] -0.005 | [18] 0.053 | [19] 0.005 | [20] -0.094

2 entries drawn at random from the list so far:
TDRKH (UniProt Q9Y2W6)
inactive: [1] -0.011 | [2] -0.088 | [3] -0.036 | [4] -0.007 | [5] 0.071 | [6] 0.042 | [7] -0.026 | [8] 0.054 | [9] 0.091 | [10] 0.044 | [11] 0.03 | [12] -0.062 | [13] 0.103 | [14] -0.043 | [15] -0.039 | [16] 0.007 | [17] -0.005 | [18] 0.053 | [19] 0.005 | [20] -0.094

TCOF1 isoform 4 (UniProt Q13428)
inactive: [1] -0.03 | [2] 0.015 | [3] -0.028 | [4] -0.019 | [5] -0.001 | [6] -0.029 | [7] -0.012 | [8] -0.004 | [9] 0.056 | [10] 0.006 | [11] -0.018 | [12] 0.034 | [13] -0.016 | [14] -0.02 | [16] 0.063 | [17] -0.052 | [19] 0.019 | [20] -0.06

(further entries)

THEM4 (UniProt Q5T1C6)
inactive: [1] 0.021 | [2] -0.021 | [3] 0.022 | [4] -0.009 | [5] -0.084 | [6] 0.018 | [7] -0.043 | [8] 0.01 | [9] -0.005 | [10] 0.001 | [11] 0.067 | [12] 0.163 | [13] 0.002 | [14] -0.019 | [15] 0.008 | [16] -0.029 | [17] -0.005 | [18] 0.007 | [19] -0.059 | [20] 0.026

TBC1D23 (UniProt Q9NUY8)
active: [20] -0.651
inactive: [1] 0.029 | [2] -0.038 | [3] 0.005 | [4] 0.005 | [5] -0.071 | [6] 0.035 | [7] 0.034 | [8] -0.074 | [9] 0.006 | [10] 0.041 | [11] -0.228 | [12] -0.261 | [13] 0.008 | [14] 0.049 | [16] -0.069 | [17] 0.025 | [19] 0.043
